± gives the standard deviation of the averaged measurements. Values are relative to the signal before dosing, not to a vehicle control; the signal also falls without drug.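 Fibroblast labels name human fibroblasts: mostly primary ones from tissues such as uterus (C12385, HUF), lung (H6013), bone (Hs27A), adrenal (HADF) and skin (WS1), plus mammary HMF and breast cancer-associated Hs343T. The cancer cells are basal-like or mesenchymal-like triple-negative breast cancer lines. The paper calls a changed response a hit when it shifts by more than 3x the replicate standard deviation. The tissue of the other fibroblasts is not given here.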
Tested on: HCC1143
Test: relative JC-1 red fluorescence (viability) vs pre-drug, coculture with fibroblast (fraction); higher = more viable cancer cells
Description: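 JC-1 labelled TNBC cells cocultured 1:1 (1,500 cells each) with CellTrace Violet stained primary or stromal fibroblasts in 384-well plates in FluoroBrite medium, treated with one of 42 anticancer drugs at 0.1, 1, 10 or 100 uM. JC-1 red fluorescence (mitochondrial integrity in cancer cells only) was read by plate reader every 8 h for 72 h. Values are normalised to each well's pre-drug value. The stock of one drug was tenfold lower, so its dose labels may be too high.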

CS(=O)(=O)CCNCc1ccc(-c2ccc3ncnc(Nc4ccc(OCc5cccc(F)c5)c(Cl)c4)c3c2)o1 [Lapatinib]
relative JC-1 red fluorescence
Conditions | 8 h | 16 h | 24 h | 32 h | 40 h | 48 h | 56 h | 64 h | 72 h
10 µM, coculture fibroblast: C12385 | 0.858 ± 0.024 | 0.775 ± 0.013 | 0.69 ± 0.024 | 0.591 ± 0.022 | 0.51 ± 0.017 | 0.4664 ± 0.0029 | 0.449 ± 0.0053 | 0.451 ± 0.0063 | 0.455 ± 0.017
10 µM, coculture fibroblast: H6013 | 0.757 ± 0.012 | 0.6375 ± 0.0059 | 0.573 ± 0.013 | 0.553 ± 0.042 | 0.462 ± 0.055 | 0.446 ± 0.051 | 0.417 ± 0.056 | 0.412 ± 0.054 | 0.452 ± 0.034
10 µM, coculture fibroblast: H6019 | 0.853 ± 0.013 | 0.801 ± 0.0098 | 0.7918 ± 0.0039 | 0.728 ± 0.0099 | 0.683 ± 0.0084 | 0.6526 ± 0.0033 | 0.628 ± 0.0019 | 0.6132 ± 0.0036 | 0.5826 ± 0.0031
10 µM, coculture fibroblast: H6076 | 0.8497 ± 0.0084 | 0.858 ± 0.064 | 0.819 ± 0.049 | 0.7356 ± 0.0012 | 0.7398 ± 0.0056 | 0.733 ± 0.016 | 0.718 ± 0.048 | 0.711 ± 0.063 | 0.713 ± 0.07
10 µM, coculture fibroblast: H6231 | 0.824 ± 0.019 | 0.8738 ± 0.0022 | 0.808 ± 0.0092 | 0.59279 ± 0.00043 | 0.702 ± 0.0096 | 0.665 ± 0.017 | 0.652 ± 0.04 | 0.643 ± 0.043 | 0.642 ± 0.053
10 µM, coculture fibroblast: HADF | 0.706 ± 0.0061 | 0.6167 ± 0.0023 | 0.5754 ± 0.0025 | 0.597 ± 0.01 | 0.468 ± 0.012 | 0.434 ± 0.011 | 0.407 ± 0.018 | 0.39 ± 0.016 | 0.459 ± 0.023
10 µM, coculture fibroblast: HCFa | 0.764 ± 0.018 | 0.668 ± 0.025 | 0.64 ± 0.024 | 0.65 ± 0.042 | 0.562 ± 0.037 | 0.536 ± 0.041 | 0.517 ± 0.043 | 0.509 ± 0.048 | 0.584 ± 0.046
10 µM, coculture fibroblast: HCPF | 0.8214 ± 0.0044 | 0.916 ± 0.019 | 0.8661 ± 0.0016 | 0.648 ± 0.032 | 0.7602 ± 0.0046 | 0.723 ± 0.014 | 0.673 ± 0.019 | 0.642 ± 0.024 | 0.638 ± 0.023
10 µM, coculture fibroblast: HHSteC | 0.792 ± 0.029 | 0.695 ± 0.052 | 0.671 ± 0.064 | 0.662 ± 0.082 | 0.566 ± 0.089 | 0.545 ± 0.084 | 0.513 ± 0.093 | 0.499 ± 0.087 | 0.524 ± 0.086
10 µM, coculture fibroblast: HMF | 0.861 ± 0.032 | 0.929 ± 0.026 | 0.882 ± 0.019 | 0.756 ± 0.012 | 0.8164 ± 0.0031 | 0.7946 ± 0.0044 | 0.7823 ± 0.0064 | 0.76995 ± 0.00076 | 0.762 ± 0.0059
10 µM, coculture fibroblast: HPFa | 0.916 ± 0.035 | 0.841 ± 0.028 | 0.781 ± 0.042 | 0.706 ± 0.038 | 0.659 ± 0.04 | 0.632 ± 0.059 | 0.616 ± 0.06 | 0.604 ± 0.034 | 0.592 ± 0.035
10 µM, coculture fibroblast: HUF | 0.934 ± 0.019 | 0.877 ± 0.032 | 0.84 ± 0.025 | 0.7778 ± 0.0014 | 0.774 ± 0.056 | 0.76 ± 0.088 | 0.739 ± 0.11 | 0.723 ± 0.11 | 0.697 ± 0.11
10 µM, coculture fibroblast: Hs5 | 0.869 ± 0.022 | 0.901 ± 0.018 | 0.839 ± 0.021 | 0.783 ± 0.049 | 0.734 ± 0.059 | 0.702 ± 0.049 | 0.675 ± 0.051 | 0.652 ± 0.031 | 0.653 ± 0.021
10 µM, coculture fibroblast: Hs27A | 0.6994 ± 0.0014 | 0.6086 ± 0.0058 | 0.539 ± 0.0077 | 0.554 ± 0.013 | 0.394 ± 0.0017 | 0.355 ± 0.015 | 0.333 ± 0.022 | 0.311 ± 0.014 | 0.409 ± 0.02
10 µM, coculture fibroblast: Hs343T | 0.8496 ± 0.0068 | 0.931 ± 0.011 | 0.879 ± 0.016 | 0.744 ± 0.028 | 0.771 ± 0.033 | 0.736 ± 0.014 | 0.689 ± 0.03 | 0.688 ± 0.025 | 0.675 ± 0.028
10 µM, coculture fibroblast: WS1 | 0.866 ± 0.03 | 0.835 ± 0.068 | 0.833 ± 0.1 | 0.803 ± 0.14 | 0.798 ± 0.15 | 0.774 ± 0.16 | 0.763 ± 0.19 | 0.728 ± 0.19 | 0.716 ± 0.21
100 µM, coculture fibroblast: C12385 | 0.853 ± 0.019 | 0.774 ± 0.032 | 0.7 ± 0.034 | 0.643 ± 0.048 | 0.586 ± 0.056 | 0.545 ± 0.062 | 0.516 ± 0.066 | 0.482 ± 0.066 | 0.46 ± 0.064
100 µM, coculture fibroblast: H6013 | 0.719 ± 0.027 | 0.651 ± 0.018 | 0.599 ± 0.027 | 0.58 ± 0.023 | 0.494 ± 0.021 | 0.476 ± 0.018 | 0.454 ± 0.0097 | 0.433 ± 0.0091 | 0.413 ± 0.0048
100 µM, coculture fibroblast: H6019 | 0.841 ± 0.0088 | 0.79 ± 0.019 | 0.758 ± 0.038 | 0.714 ± 0.031 | 0.687 ± 0.033 | 0.672 ± 0.029 | 0.628 ± 0.0095 | 0.593 ± 0.0089 | 0.574 ± 0.015
100 µM, coculture fibroblast: H6076 | 0.8154 ± 0.0058 | 0.786 ± 0.0083 | 0.757 ± 0.009 | 0.7396 ± 0.003 | 0.69047 ± 0.00025 | 0.685 ± 0.01 | 0.667 ± 0.0081 | 0.654 ± 0.0036 | 0.6681 ± 0.0015
100 µM, coculture fibroblast: H6231 | 0.832 ± 0.029 | 0.818 ± 0.055 | 0.725 ± 0.057 | 0.5929 ± 0.0016 | 0.622 ± 0.06 | 0.591 ± 0.057 | 0.55 ± 0.06 | 0.516 ± 0.05 | 0.498 ± 0.038
100 µM, coculture fibroblast: HADF | 0.771 ± 0.029 | 0.673 ± 0.028 | 0.636 ± 0.03 | 0.638 ± 0.036 | 0.553 ± 0.038 | 0.54 ± 0.043 | 0.51 ± 0.047 | 0.489 ± 0.051 | 0.469 ± 0.057
100 µM, coculture fibroblast: HCFa | 0.8 ± 0.028 | 0.691 ± 0.021 | 0.648 ± 0.024 | 0.621 ± 0.017 | 0.531 ± 0.02 | 0.5 ± 0.013 | 0.446 ± 0.013 | 0.414 ± 0.011 | 0.396 ± 0.011
100 µM, coculture fibroblast: HCPF | 0.841 ± 0.027 | 0.918 ± 0.094 | 0.903 ± 0.11 | 0.713 ± 0.065 | 0.84 ± 0.16 | 0.809 ± 0.16 | 0.768 ± 0.16 | 0.742 ± 0.16 | 0.718 ± 0.17
100 µM, coculture fibroblast: HHSteC | 0.8383 ± 0.0014 | 0.772 ± 0.017 | 0.737 ± 0.026 | 0.703 ± 0.04 | 0.641 ± 0.04 | 0.617 ± 0.045 | 0.572 ± 0.055 | 0.543 ± 0.062 | 0.499 ± 0.072
100 µM, coculture fibroblast: HMF | 0.807 ± 0.012 | 0.834 ± 0.004 | 0.7894 ± 0.0076 | 0.729 ± 0.032 | 0.71 ± 0.037 | 0.691 ± 0.04 | 0.652 ± 0.065 | 0.62 ± 0.062 | 0.61 ± 0.068
100 µM, coculture fibroblast: HPFa | 0.829 ± 0.19 | 0.909 ± 0.012 | 0.858 ± 0.046 | 0.871 ± 0.047 | 0.782 ± 0.017 | 0.778 ± 0.026 | 0.818 ± 0.088 | 0.7334 ± 0.00083 | 0.768 ± 0.099
100 µM, coculture fibroblast: HUF | 0.867 ± 0.025 | 0.783 ± 0.01 | 0.728 ± 0.011 | 0.6588 ± 0.0037 | 0.617 ± 0.0095 | 0.587 ± 0.011 | 0.5414 ± 0.0032 | 0.5201 ± 0.00097 | 0.486 ± 0.0052
100 µM, coculture fibroblast: Hs5 | 0.844 ± 0.031 | 0.86 ± 0.097 | 0.836 ± 0.095 | 0.792 ± 0.074 | 0.739 ± 0.083 | 0.692 ± 0.08 | 0.66 ± 0.071 | 0.635 ± 0.065 | 0.628 ± 0.057
100 µM, coculture fibroblast: Hs27A | 0.757 ± 0.01 | 0.6828 ± 0.0065 | 0.643 ± 0.013 | 0.661 ± 0.014 | 0.533 ± 0.022 | 0.508 ± 0.026 | 0.478 ± 0.026 | 0.451 ± 0.024 | 0.459 ± 0.038
100 µM, coculture fibroblast: Hs343T | 0.8345 ± 0.008 | 0.85 ± 0.017 | 0.826 ± 0.024 | 0.7637 ± 0.0018 | 0.7275 ± 0.0017 | 0.7033 ± 0.0068 | 0.667 ± 0.0081 | 0.6269 ± 0.00073 | 0.6029 ± 0.0044
100 µM, coculture fibroblast: WS1 | 0.8563 ± 0.0056 | 0.773 ± 0.05 | 0.754 ± 0.075 | 0.681 ± 0.081 | 0.635 ± 0.1 | 0.599 ± 0.095 | 0.57 ± 0.096 | 0.546 ± 0.096 | 0.523 ± 0.096

Source: the supplement of paper PMC6078165
